These are yes or no findings as the source states them, for the method shown.

The values below come from PMC12024694, “RNA Binding to CCRRM of PABPN1 Induces Conformation Change”.

The target of the test is CCRRM fragment of PABPN1 (Poly(A) Binding Protein Nuclear 1), amino acids 114-254 (UniProt Q86U42). Nature of the test: SAXS; SEC-SAXS of RNA-free CCRRM in Tris-HCl buffer, flow 0.5 mL/min, beamline BL19U2 of SSRF; both purified. (SEC sorts molecules by how far they enter the pores of the column.)

B1: CCRRM fragment of PABPN1 (Poly(A) Binding Protein Nuclear 1), amino acids 114-254 (domain or fragment, UniProt Q86U42 114-254)
chain: IEDPELEAIKARVREMEEEAEKLKELQNEVEKQMNMSPPPGNAGPVIMSIEEKMEADARSIYVGNVDYGATAEELEAHFHGCGSVNRVTILCDKFSGHPKGFAYIEFSDKESVRTSLALDESLFRGRQIKVIPKRTNRPGI
Regarding B1, the binding result was “no binding”.
